The list shows a part of the results.
Compound: Cc1cc(ccc1-c1ccccc1)C(=O)N1CCCN(CC1)C(=O)CCl [compound 10]
Experiment: probe-labelled cysteine peptide fold change vs DMSO (competition) (log2 fold change); higher = less target engagement (more negative = stronger competition)
Details: THP-1, incubation time: 4 h
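Further: competitive profiling in live THP-1 cells: cysteine peptides tagged with an iodoacetamide desthiobiotin (IA-DTB) probe, intensity after compound treatment relative to DMSO-treated cells.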

Sequences of proteins named here, by UniProt entry; tags and fusion partners are left off. A change or cut given only in a name is not applied to a line headed by its entry.
UniProt Q13155: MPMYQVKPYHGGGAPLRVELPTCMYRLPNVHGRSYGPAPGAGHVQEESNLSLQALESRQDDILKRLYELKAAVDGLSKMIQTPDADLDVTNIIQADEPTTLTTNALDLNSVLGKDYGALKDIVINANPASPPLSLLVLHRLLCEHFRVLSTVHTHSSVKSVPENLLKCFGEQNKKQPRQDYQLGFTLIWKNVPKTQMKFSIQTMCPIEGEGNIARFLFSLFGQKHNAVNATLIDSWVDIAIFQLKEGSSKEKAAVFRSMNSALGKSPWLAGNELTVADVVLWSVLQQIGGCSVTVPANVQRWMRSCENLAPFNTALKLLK
UniProt O43865, whole entry, looked up: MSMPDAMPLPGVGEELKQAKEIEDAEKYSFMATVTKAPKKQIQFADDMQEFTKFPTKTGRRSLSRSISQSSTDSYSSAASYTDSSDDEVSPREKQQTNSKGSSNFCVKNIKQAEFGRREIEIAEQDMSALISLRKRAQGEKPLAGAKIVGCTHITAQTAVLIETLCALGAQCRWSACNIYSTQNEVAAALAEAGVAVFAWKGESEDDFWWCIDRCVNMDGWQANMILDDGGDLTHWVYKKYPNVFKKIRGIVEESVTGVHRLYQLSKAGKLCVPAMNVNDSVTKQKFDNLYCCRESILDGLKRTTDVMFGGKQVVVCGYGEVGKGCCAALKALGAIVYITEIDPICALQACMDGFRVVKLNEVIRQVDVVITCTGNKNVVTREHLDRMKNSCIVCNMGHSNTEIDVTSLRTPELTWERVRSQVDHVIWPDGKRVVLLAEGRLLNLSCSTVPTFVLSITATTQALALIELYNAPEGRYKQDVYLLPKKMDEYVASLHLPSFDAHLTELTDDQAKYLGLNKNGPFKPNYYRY
UniProt P54886: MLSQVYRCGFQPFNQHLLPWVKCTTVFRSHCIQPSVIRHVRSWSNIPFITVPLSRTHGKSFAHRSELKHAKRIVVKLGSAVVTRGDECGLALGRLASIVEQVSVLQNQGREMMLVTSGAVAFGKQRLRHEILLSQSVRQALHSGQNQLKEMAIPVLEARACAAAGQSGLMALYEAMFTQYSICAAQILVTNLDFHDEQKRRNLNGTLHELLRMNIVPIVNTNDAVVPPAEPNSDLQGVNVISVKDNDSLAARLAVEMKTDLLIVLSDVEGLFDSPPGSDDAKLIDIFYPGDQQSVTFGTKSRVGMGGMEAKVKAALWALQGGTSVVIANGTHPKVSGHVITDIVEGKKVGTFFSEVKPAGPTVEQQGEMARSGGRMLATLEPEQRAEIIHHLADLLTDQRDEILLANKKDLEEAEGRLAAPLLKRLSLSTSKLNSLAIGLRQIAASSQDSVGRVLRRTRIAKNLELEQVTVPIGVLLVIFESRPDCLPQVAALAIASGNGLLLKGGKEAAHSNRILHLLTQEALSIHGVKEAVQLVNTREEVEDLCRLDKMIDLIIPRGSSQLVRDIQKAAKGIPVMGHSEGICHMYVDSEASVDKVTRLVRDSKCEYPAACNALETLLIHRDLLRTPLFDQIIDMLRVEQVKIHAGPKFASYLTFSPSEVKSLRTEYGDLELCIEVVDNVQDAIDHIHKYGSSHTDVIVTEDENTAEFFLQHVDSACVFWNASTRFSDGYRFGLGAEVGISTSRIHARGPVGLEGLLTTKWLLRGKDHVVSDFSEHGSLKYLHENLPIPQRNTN
UniProt Q9NRZ7: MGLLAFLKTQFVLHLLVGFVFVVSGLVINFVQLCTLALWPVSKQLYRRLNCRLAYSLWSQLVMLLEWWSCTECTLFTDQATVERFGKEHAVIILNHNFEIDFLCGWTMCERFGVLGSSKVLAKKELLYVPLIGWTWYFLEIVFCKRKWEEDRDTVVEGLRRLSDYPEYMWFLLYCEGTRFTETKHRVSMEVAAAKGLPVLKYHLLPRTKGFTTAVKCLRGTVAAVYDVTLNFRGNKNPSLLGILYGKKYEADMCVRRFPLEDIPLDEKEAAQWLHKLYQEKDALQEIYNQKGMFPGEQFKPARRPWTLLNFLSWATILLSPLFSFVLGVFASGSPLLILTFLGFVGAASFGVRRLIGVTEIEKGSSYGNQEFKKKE
UniProt Q9H1A4, whole entry, looked up: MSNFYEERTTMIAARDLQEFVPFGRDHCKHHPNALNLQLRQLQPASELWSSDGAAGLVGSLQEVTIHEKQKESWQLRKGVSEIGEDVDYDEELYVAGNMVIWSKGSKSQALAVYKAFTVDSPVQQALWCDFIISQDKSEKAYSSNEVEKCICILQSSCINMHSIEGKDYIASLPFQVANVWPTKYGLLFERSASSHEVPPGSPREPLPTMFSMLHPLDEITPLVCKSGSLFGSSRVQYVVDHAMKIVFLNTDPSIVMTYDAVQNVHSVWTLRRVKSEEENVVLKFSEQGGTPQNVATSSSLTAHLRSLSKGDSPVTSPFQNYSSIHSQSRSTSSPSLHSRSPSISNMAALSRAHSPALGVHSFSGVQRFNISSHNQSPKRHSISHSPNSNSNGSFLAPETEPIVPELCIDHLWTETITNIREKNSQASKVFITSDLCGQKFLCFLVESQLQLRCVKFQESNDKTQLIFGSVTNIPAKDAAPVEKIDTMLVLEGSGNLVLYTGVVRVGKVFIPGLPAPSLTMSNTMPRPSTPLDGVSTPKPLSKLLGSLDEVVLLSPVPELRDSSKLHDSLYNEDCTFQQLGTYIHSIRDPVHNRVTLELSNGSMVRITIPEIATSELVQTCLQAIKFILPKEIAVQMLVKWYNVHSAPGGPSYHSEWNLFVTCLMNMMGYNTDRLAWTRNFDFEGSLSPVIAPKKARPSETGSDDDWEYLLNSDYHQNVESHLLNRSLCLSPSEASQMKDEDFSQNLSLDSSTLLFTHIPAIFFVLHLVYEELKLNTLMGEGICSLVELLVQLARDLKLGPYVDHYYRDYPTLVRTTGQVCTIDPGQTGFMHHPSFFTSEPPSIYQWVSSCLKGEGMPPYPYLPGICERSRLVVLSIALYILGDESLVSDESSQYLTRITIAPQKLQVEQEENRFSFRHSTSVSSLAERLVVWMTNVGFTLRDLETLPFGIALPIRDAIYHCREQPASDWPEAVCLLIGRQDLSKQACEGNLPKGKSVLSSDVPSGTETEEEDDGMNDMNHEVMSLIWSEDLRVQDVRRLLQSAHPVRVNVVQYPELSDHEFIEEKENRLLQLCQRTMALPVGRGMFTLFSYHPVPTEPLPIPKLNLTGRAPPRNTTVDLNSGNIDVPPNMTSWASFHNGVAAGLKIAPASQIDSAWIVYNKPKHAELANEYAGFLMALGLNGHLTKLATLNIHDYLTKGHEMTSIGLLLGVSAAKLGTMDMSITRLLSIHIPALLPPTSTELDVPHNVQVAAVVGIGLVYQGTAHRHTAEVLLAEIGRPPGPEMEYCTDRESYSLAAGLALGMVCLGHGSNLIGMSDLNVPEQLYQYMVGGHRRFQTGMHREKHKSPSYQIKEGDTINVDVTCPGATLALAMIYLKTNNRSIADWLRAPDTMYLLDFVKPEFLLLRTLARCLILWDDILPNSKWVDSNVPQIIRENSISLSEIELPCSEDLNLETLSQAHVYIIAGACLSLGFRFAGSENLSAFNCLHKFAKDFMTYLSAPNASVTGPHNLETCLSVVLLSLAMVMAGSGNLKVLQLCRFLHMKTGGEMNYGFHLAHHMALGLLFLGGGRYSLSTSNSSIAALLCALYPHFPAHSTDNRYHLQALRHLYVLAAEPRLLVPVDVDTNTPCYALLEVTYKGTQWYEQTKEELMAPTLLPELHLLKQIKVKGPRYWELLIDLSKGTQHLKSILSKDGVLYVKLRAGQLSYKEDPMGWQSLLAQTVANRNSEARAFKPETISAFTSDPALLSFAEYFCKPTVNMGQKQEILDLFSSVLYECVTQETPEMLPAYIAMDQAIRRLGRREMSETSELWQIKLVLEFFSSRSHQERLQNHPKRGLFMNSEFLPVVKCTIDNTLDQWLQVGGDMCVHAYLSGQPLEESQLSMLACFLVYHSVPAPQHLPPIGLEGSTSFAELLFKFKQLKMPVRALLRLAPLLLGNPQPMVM
UniProt Q96BJ3: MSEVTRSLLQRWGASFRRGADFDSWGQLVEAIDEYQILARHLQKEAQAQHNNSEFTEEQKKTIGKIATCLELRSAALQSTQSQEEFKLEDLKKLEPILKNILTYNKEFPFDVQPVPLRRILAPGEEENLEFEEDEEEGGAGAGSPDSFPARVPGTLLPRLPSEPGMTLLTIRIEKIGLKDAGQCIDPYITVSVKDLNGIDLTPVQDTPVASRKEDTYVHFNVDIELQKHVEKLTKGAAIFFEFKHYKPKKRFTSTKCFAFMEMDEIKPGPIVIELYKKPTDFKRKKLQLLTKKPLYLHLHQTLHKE
UniProt Q13686: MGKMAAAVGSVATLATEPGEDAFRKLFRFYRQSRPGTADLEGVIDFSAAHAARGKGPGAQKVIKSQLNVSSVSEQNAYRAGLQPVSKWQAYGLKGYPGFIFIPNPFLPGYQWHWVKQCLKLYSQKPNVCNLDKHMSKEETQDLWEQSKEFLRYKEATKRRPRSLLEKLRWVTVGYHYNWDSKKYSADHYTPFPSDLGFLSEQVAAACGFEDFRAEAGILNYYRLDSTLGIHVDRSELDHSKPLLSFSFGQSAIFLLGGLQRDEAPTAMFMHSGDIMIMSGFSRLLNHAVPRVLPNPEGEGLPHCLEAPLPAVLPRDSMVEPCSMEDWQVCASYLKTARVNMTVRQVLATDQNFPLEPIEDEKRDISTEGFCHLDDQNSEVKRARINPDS
UniProt O95433, whole entry, looked up: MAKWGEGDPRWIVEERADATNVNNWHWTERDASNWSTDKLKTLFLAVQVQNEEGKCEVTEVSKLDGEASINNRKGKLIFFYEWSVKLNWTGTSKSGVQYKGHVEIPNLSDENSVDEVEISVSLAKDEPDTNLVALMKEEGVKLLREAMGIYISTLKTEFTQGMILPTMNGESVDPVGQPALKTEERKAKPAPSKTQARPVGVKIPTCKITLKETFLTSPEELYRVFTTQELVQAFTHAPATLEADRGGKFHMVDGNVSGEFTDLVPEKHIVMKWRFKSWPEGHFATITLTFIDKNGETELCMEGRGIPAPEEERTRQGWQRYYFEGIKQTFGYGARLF
UniProt Q9Y3D8, whole entry, looked up: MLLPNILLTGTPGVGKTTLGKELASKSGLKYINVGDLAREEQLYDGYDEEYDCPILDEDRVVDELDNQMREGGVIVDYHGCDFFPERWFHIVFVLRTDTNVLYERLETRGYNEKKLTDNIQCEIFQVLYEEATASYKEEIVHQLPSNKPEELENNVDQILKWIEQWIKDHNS
UniProt Q9UJX3, whole entry, looked up: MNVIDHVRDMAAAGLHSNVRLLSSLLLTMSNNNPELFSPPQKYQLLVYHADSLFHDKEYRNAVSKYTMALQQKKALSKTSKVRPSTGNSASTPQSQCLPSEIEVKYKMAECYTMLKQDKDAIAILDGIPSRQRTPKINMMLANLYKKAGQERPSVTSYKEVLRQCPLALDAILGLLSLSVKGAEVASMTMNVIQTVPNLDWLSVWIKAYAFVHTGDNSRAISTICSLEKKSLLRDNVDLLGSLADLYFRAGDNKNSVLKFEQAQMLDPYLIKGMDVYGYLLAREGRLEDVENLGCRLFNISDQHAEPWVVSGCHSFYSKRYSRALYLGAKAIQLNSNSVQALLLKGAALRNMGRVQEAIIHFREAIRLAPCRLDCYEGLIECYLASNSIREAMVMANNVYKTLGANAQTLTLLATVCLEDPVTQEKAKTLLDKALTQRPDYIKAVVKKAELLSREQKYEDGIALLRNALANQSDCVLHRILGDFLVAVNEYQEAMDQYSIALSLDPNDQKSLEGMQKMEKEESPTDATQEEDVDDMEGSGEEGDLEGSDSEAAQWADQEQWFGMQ
UniProt P02760: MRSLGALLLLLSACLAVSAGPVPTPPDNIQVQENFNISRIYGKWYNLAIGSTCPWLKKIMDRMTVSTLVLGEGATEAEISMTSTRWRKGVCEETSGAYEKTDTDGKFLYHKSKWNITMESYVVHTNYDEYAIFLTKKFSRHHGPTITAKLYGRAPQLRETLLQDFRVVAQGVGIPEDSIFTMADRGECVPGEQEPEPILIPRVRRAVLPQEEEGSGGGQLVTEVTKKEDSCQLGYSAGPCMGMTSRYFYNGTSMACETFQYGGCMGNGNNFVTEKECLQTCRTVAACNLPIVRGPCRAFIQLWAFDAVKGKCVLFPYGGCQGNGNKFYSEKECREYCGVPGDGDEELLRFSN
UniProt Q9NXW9: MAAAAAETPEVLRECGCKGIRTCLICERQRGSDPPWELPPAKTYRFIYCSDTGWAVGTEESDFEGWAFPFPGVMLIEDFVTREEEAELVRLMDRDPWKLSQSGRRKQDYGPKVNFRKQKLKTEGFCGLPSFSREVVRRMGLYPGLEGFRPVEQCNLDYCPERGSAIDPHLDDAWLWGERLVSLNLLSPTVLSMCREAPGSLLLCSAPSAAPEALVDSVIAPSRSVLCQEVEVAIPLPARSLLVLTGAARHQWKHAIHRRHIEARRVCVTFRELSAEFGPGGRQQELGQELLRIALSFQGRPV
UniProt Q9NYG5, whole entry, looked up: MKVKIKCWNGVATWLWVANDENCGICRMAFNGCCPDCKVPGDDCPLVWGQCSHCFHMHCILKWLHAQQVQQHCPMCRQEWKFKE

Target | probe-labelled cysteine peptide fold change (10 µM) | probe-labelled cysteine peptide fold change (50 µM)
AHCY_P23526_195_SKFDNLYGCR (UniProt P23526) | -0.056 | -0.0438
AIMP2_Q13155_143_LLCEHFR (UniProt Q13155) | -0.0723 | 0.013
AHCYL1_O43865_373_QVDVVITCTGNK (UniProt O43865) | 0.0162 | -0.173
ALDH18A1_P54886_606_CEYPAACNALETLLIHR (UniProt P54886) | 0.125 | -0.514
ALG2_Q9H553_137_ILFYCHFPDLLLTK (UniProt Q9H553) | 0.19 | 0.403
AMBRA1_Q9C0C7_1036_GDLVICRPEALNSGVEYYWDQLNETVFTVHSNSR (UniProt Q9C0C7) | -0.016 | 0.16
ANAPC2_Q9UJX6_557_FGEAPMHFCEVMLK (UniProt Q9UJX6) | -0.0427 | 0.0673
AIG1_Q9NVV5_6_MALVPCQVLR (UniProt Q9NVV5) | -0.836 | -1.35
AKAP17A_Q02040_95_SFLACLDGK (UniProt Q02040) | 0.0192 | 0.159
AMPD2_Q01433_107_SLPGPAPCLK (UniProt Q01433) | -0.0605 | -0.711
AGPAT3_Q9NRZ7_254_KYEADMCVR (UniProt Q9NRZ7) | -0.189 | 0.173
ANAPC1_Q9H1A4_962_DAIYHCR (UniProt Q9H1A4) | 0.0454 | 0.229
AIMP2_Q13155_23_PYHGGGAPLRVELPTCMYR (UniProt Q13155) | -0.0258 | -0.326
ANGEL2_Q5VTE6_305_IPYAACPAICVANTHLLYNPR (UniProt Q5VTE6) | 0.0352 | 0.0303
AIDA_Q96BJ3_69_IATCLELR (UniProt Q96BJ3) | -0.123 | -0.606
ALKBH1_Q13686_304_VLPNPEGEGLPHCLEAPLPAVLPR (UniProt Q13686) | -0.152 | 0.16
AGPS_O00116_565_GVQFAPFSTCR (UniProt O00116) | -0.0112 | 0.125
AHSA1_O95433_56_CEVTEVSK (UniProt O95433) | -0.108 | 0.37
AK6_Q9Y3D8_81_EGGVIVDYHGCDFFPER (UniProt Q9Y3D8) | 0.127 | 0.272
ALDOC_P09972_240_PNMVTPGHACPIK (UniProt P09972) | -0.134 | 0.0797
ANAPC7_Q9UJX3_131_VRPSTGNSASTPQSQCLPSEIEVK (UniProt Q9UJX3) | -0.28 | -0.812

Reprinted at random: 3 records from the list
Target | probe-labelled cysteine peptide fold change (10 µM) | probe-labelled cysteine peptide fold change (50 µM)
ALKBH1_Q13686_304_VLPNPEGEGLPHCLEAPLPAVLPR (UniProt Q13686) | -0.152 | 0.16
AHSA1_O95433_56_CEVTEVSK (UniProt O95433) | -0.108 | 0.37
AIDA_Q96BJ3_69_IATCLELR (UniProt Q96BJ3) | -0.123 | -0.606

Additional entries follow.

Target | probe-labelled cysteine peptide fold change (10 µM) | probe-labelled cysteine peptide fold change (50 µM)
AKR1B1_P15121_299+304_VCALLSCTSHK (UniProt P15121) | -0.497 | -2.06
AMBP_P02760_277_ECLQTCR (UniProt P02760) | -0.0115 | 0.386
AHCYL1_O43865_317_QVVVCGYGEVGK (UniProt O43865) | -0.132 | -0.285
AKAP1_Q92667_655_IYISTLPYTQSVQICHIEGSQHHVDK (UniProt Q92667) | 0.168 | 0.539
ALKBH4_Q9NXW9_227_SVLCQEVEVAIPLPAR (UniProt Q9NXW9) | -0.161 | 0.229
AHCTF1_Q8WYP5_107_RTGLLIGLEETEGSVLCLYDLGISK (UniProt Q8WYP5) | 0.125 | 0.0532
ALDOB_P05062_240_ALNDHHVYLEGTLLKPNMVTAGHACTK (UniProt P05062) | -0.247 | -0.446
ALDH4A1_P30038_315_LAGECGGK (UniProt P30038) | -0.0573 | 0.0215
ALDH18A1_P54886_546_EEVEDLCR (UniProt P54886) | -0.122 | 0.165
AKR1B1_P15121_81_LWCTYHEK (UniProt P15121) | -0.0369 | -0.0183
AHNAK_Q09666_108_EVFSSCSSEVVLSGDDEEYQR (UniProt Q09666) | -0.0904 | 0.207
ANAPC7_Q9UJX3_329_EGRLEDVENLGCR (UniProt Q9UJX3) | -0.0392 | -0.302
ALG13_Q9NP73_86_ADLVISHAGAGSCLETLEK (UniProt Q9NP73) | -0.211 | -0.753
ALDOA_P04075_178_YASICQQNGIVPIVEPEILPDGDHDLK (UniProt P04075) | 0.181 | 0.407
ANAPC11_Q9NYG5_73_WLHAQQVQQHCPMCR (UniProt Q9NYG5) | -0.0741 | -0.108
AKAP9_Q99996_1954_TDIIDRLEQELLCASNR (UniProt Q99996) | -0.0778 | -0.162
AMPD2_Q01433_310_TYEQGPDTPVSADAPVHPPALEQHPYEHCEPSTMPGDLGLGLR (UniProt Q01433) | -0.312 | -0.408
ALAS1_P13196_8_RCPFLSR (UniProt P13196) | 0.407 | 0.748
ALDH9A1_P49189_289_GALMANFLTQGQVCCNGTR (UniProt P49189) | 0.00295 | -0.399
AKT2_P31751_124_CGSPSDSSTTEEMEVAVSK (UniProt P31751) | -0.251 | -0.373
ALOX5_P09917_450_DLTYASLCFPEAIK (UniProt P09917) | -0.0604 | -0.0172

Reference: the supplement of paper PMC12067093, “Discovery and optimisation of a covalent ligand for TRIM25 and its application to targeted protein ubiquitination” (Chemical Science, 2025)
